Measured values as given in publication doi:10.1101/2020.07.15.204800 (bioRxiv, 2020).
Substitutions are numbered along the chain they refer to. No constants are given. Whether binding was seen depends on the method and setting. In cells and extracts the contact can be indirect. Some results given as binding are weak or reduced against the parent protein; the word gives no strength. Where a sequence is shown, tags or fusion partners need not be part of it.

How the values were obtained:
Experiment in all cases: co-IP
[1] = biological target: T1, WDR41-HA with deletion of the turn sub-region of the 7CD loop (361-373) (UniProt Q9HAD4)
T1 sequence: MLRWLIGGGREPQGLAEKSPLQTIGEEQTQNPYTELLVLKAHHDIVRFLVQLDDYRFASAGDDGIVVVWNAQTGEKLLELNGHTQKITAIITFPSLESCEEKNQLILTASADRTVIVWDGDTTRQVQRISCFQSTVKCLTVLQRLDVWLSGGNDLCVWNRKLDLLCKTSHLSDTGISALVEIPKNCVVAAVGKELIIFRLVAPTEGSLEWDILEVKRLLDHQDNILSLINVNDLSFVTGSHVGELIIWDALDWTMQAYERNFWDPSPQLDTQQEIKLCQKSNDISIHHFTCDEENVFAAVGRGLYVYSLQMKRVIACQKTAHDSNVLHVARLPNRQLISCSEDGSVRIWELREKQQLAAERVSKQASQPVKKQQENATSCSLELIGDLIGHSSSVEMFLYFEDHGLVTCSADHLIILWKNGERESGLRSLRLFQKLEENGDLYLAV

WDR41-HA G365V = biological target: T2, WDR41-HA G365V (UniProt Q9HAD4)
T2 sequence: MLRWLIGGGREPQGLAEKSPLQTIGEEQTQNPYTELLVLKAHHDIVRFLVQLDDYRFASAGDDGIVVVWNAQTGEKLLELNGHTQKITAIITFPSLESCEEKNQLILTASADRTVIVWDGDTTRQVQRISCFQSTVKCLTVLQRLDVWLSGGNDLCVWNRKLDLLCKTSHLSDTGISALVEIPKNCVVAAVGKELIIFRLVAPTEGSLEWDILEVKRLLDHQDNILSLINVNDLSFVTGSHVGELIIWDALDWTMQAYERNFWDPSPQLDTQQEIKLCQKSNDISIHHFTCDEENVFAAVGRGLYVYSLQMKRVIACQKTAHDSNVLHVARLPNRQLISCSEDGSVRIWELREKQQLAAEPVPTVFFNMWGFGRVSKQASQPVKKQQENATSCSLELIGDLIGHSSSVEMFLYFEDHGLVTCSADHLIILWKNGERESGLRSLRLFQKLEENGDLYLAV

[2] = biological target: T3, WDR41-HA with complete deletion of the 7CD loop (residues 354-393) (UniProt Q9HAD4)
T3 sequence: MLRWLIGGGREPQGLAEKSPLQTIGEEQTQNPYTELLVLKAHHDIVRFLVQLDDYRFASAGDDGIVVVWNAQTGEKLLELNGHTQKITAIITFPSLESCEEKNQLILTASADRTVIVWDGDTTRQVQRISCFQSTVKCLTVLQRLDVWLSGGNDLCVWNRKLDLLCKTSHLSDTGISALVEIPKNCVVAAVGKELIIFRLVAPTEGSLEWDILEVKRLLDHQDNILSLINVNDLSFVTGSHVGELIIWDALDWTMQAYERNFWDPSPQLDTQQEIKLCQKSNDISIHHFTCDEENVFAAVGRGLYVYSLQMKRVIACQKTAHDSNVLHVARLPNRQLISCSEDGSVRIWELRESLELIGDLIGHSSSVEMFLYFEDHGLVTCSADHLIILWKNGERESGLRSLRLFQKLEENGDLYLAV

WDR41-HA F367A = biological target: T4, WDR41-HA F367A (UniProt Q9HAD4)
T4 sequence: T2 sequence with V365G, F367A

[3] = biological target: T5, GFP fusion of WDR41 354-360 (linker) (UniProt Q9HAD4)
T5 sequence: KQQLAAE

[4] = biological target: T6, WDR41-HA with deletion of the first linker sub-region of the 7CD loop (354-360) (UniProt Q9HAD4)
T6 sequence: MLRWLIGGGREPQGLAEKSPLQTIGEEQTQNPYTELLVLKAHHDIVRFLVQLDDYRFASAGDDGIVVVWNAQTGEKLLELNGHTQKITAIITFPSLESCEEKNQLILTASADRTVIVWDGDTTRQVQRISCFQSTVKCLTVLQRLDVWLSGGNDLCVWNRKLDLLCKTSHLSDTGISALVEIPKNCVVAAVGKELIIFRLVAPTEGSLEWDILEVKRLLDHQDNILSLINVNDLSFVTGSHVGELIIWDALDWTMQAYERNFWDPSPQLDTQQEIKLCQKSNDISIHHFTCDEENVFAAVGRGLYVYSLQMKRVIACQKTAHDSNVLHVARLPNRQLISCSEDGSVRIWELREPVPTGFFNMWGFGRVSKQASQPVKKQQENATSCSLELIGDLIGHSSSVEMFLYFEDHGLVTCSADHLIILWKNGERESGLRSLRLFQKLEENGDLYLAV

WDR41-HA F366A = biological target: T7, WDR41-HA F366A (UniProt Q9HAD4)
T7 sequence: T2 sequence with V365G, F366A

B1: PQLC2-FLAG wild type (protein, UniProt Q6ZP29 1-291)
chain: MVWKKLGSRNFSSCPSGSIQWIWDVLGECAQDGWDEASVGLGLISILCFAASTFPQFIKAYKTGNMDQALSLWFLLGWIGGDSCNLIGSFLADQLPLQTYTAVYYVLADLVMLTLYFYYKFRTRPSLLSAPINSVLLFLMGMACATPLLSAAGPVAAPREAFRGRALLSVESGSKPFTRQEVIGFVIGSISSVLYLLSRLPQIRTNFLRKSTQGISYSLFALVMLGNTLYGLSVLLKNPEEGQSEGSYLLHHLPWLVGSLGVLLLDTIISIQFLVYRRSTAASELEPLLPS
For B1, the binding [1] was “no binding”, the binding (WDR41-HA G365V) was “no binding” and the binding [2] was “no binding”. For the same binder, the binding (WDR41-HA F367A) was “no binding”, the binding [3] was “no binding” and the binding [4] was “no binding”. The binding (WDR41-HA F366A) was “no binding”.

B2: SMCR8 (protein, UniProt Q8TEV9 1-937)
chain: MISAPDVVAFTKEEEYEEEPYNEPALPEEYSVPLFPFASQGANPWSKLSGAKFSRDFILISEFSEQVGPQPLLTIPNDTKVFGTFDLNYFSLRIMSVDYQASFVGHPPGSAYPKLNFVEDSKVVLGDSKEGAFAYVHHLTLYDLEARGFVRPFCMAYISADQHKIMQQFQELSAEFSRASECLKTGNRKAFAGELEKKLKDLDYTRTVLHTETEIQKKANDKGFYSSQAIEKANELASVEKSIIEHQDLLKQIRSYPHRKLKGHDLCPGEMEHIQDQASQASTTSNPDESADTDLYTCRPAYTPKLIKAKSTKCFDKKLKTLEELCDTEYFTQTLAQLSHIEHMFRGDLCYLLTSQIDRALLKQQHITNFLFEDFVEVDDRMVEKQESIPSKPSQDRPPSSSLEECPIPKVLISVGSYKSSVESVLIKMEQELGDEEYKEVEVTELSSFDPQENLDYLDMDMKGSISSGESIEVLGTEKSTSVLSKSDSQASLTVPLSPQVVRSKAVSHRTISEDSIEVLSTCPSEALIPDDFKASYPSAINEEESYPDGNEGAIRFQASISPPELGETEEGSIENTPSQIDSSCCIGKESDGQLVLPSTPAHTHSDEDGVVSSPPQRHRQKDQGFRVDFSVENANPSSRDNSCEGFPAYELDPSHLLASRDISKTSLDNYSDTTSYVSSVASTSSDRIPSAYPAGLSSDRHKKRAGQNALKFIRQYPFAHPAIYSLLSGRTLVVLGEDEAIVRKLVTALAIFVPSYGCYAKPVKHWASSPLHIMDFQKWKLIGLQRVASPAGAGTLHALSRYSRYTSILDLDNKTLRCPLYRGTLVPRLADHRTQIKRGSTYYLHVQSMLTQLCSKAFLYTFCHHLHLPTHDKETEELVASRQMSFLKLTLGLVNEDVRVVQYLAELLKLHYMQESPGTSHPMLRFDYVPSFLYKI
B2 was tested, and the binding [1] was “binds”, the binding (WDR41-HA G365V) was “binds” and the binding [2] was “binds”. The binding (WDR41-HA F367A) was “binds”, the binding [3] was “no binding” and the binding [4] was “binds”. The binding (WDR41-HA F366A) was “binds”.
